Measurements as given in paper doi:10.1101/701425.
Where two headings read alike, the source gives them in different places. Results are given in words; binding and its absence hold for the method and conditions named. Binding seen in cells or lysates may run through a third protein. Here binding means that the protein was enriched with, or labelled near, the bait; the list need not be complete. For some of these results: A no says only that the protein was not detected with the bait.

By UniProt entry, the sequences of proteins in these tests, tags left out. Where a name states a change or a piece, a line headed by the entry shows the natural chain unless it says otherwise. Residues count along the entry.
UniProt F4J8D3: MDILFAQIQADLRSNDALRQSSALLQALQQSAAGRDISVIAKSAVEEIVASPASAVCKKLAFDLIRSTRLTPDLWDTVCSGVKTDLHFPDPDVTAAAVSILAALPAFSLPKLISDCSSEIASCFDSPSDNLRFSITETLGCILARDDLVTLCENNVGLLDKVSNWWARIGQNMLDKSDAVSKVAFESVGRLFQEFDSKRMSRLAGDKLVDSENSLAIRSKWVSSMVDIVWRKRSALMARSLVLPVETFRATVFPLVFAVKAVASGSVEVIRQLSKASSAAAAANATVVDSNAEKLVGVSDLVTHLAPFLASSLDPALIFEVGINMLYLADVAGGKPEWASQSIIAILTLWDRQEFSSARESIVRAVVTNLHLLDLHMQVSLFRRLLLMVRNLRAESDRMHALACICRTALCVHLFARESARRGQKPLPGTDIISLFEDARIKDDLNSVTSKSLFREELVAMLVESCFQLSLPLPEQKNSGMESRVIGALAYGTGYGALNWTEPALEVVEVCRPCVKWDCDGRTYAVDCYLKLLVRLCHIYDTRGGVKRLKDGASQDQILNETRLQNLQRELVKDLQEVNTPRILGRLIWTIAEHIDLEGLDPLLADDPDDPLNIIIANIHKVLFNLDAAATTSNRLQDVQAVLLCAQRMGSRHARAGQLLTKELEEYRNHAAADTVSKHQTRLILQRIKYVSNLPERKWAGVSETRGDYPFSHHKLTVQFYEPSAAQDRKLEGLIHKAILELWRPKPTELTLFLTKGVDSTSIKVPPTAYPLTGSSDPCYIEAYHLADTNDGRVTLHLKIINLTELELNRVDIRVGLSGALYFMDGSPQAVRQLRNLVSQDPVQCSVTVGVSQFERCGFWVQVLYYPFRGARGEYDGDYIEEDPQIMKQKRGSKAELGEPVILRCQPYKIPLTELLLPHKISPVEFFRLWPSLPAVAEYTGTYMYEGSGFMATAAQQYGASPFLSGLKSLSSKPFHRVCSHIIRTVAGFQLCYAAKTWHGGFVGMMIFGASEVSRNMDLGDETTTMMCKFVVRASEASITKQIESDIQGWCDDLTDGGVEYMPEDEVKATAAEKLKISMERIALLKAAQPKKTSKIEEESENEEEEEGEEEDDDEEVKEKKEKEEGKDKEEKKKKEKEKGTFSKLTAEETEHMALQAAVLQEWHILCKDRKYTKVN
UniProt C0LGT6, residues 25-1031: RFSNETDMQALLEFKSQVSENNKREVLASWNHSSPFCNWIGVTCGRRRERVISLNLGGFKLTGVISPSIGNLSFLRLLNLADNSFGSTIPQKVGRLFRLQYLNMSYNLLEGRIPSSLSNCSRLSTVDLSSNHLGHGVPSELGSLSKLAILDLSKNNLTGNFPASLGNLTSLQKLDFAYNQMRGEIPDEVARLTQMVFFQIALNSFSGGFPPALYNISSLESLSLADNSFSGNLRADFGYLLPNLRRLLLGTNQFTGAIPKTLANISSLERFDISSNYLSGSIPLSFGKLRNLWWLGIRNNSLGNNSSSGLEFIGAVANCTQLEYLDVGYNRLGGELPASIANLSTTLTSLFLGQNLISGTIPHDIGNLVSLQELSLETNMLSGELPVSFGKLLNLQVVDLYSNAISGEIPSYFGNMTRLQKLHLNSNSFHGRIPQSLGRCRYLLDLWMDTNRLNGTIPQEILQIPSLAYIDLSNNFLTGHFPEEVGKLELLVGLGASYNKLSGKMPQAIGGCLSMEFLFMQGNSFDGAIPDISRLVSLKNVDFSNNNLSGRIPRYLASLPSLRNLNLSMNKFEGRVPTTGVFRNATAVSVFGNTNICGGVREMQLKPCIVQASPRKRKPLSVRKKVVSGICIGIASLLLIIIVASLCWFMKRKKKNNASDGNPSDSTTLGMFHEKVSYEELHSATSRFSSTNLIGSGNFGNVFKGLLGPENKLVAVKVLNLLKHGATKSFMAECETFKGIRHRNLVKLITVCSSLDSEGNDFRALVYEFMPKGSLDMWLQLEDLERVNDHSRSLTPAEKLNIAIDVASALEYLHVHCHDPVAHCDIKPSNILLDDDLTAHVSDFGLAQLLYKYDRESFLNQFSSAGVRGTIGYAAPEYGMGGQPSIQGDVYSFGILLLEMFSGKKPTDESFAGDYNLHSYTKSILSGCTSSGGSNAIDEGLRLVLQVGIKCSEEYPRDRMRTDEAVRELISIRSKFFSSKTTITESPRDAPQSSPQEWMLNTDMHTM
UniProt Q8S9J8: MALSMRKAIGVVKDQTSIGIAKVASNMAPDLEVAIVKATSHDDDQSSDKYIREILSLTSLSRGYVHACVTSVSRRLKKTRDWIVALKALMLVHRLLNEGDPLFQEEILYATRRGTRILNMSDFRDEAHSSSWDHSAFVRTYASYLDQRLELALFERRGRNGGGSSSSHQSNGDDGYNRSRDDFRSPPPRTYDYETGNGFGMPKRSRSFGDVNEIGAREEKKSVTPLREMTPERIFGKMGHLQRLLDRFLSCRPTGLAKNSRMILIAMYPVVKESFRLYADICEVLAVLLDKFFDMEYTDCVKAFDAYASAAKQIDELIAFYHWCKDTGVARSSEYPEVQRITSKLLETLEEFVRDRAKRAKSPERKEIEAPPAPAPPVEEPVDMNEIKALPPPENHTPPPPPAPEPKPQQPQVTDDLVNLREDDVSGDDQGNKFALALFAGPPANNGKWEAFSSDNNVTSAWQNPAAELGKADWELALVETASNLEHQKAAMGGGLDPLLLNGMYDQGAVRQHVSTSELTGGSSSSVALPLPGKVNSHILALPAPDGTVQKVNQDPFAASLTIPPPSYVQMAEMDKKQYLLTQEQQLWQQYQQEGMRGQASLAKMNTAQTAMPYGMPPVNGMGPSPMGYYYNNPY
UniProt F4KIH8: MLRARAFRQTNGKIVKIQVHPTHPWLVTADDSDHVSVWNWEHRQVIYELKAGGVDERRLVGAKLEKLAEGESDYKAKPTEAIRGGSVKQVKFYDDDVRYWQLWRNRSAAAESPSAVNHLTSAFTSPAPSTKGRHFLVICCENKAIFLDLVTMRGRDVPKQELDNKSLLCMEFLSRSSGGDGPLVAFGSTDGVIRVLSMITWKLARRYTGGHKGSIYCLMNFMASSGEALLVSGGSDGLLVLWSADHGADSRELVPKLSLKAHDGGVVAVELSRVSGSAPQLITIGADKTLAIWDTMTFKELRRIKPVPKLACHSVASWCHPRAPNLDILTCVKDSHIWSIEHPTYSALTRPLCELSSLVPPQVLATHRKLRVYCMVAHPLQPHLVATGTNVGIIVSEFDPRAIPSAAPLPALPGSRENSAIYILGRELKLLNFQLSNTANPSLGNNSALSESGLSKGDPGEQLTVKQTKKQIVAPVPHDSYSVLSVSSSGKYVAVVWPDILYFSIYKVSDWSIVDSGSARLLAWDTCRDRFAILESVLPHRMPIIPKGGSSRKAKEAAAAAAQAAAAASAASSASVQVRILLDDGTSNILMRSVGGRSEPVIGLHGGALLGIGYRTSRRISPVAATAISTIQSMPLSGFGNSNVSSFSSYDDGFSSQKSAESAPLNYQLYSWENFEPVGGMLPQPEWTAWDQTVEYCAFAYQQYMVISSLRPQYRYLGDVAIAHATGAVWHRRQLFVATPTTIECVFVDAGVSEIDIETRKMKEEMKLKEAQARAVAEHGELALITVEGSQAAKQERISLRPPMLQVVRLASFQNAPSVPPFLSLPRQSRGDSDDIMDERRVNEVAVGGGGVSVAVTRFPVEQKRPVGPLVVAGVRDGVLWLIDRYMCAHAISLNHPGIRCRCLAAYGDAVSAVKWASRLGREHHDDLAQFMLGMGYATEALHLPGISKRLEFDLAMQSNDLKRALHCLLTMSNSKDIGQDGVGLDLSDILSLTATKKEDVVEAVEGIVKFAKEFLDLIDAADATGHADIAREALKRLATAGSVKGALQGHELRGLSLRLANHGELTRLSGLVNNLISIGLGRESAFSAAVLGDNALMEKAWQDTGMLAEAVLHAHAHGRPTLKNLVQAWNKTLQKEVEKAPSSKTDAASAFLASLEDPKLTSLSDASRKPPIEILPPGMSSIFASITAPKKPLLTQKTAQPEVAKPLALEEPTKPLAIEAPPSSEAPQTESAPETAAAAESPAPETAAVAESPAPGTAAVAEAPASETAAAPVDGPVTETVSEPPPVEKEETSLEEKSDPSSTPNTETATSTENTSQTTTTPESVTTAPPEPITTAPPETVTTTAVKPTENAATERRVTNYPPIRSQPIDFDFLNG

Columns and labels:
[1] = biological target: TPLATE-GS^rhino (A. thaliana) (UniProt F4J8D3); test: affinity purification with mass spectrometry
[2] = biological target: TPLATE-BioID (A. thaliana) (UniProt F4J8D3); test: proximity labelling
[3] = biological target: TPLATE-linkerBioID (A. thaliana) (UniProt F4J8D3); test: proximity labelling
[4] = biological target: TPLATE-linkerBioID2 (A. thaliana) (UniProt F4J8D3); test: proximity labelling
[5] = biological target: TPLATE-linkerTurboID (A. thaliana) (UniProt F4J8D3); test: proximity labelling
[6] = biological target: TPLATE-linkerTurboID (A. thaliana) (UniProt F4J8D3); test: proximity labelling; remark: listed apart in the source
[7] = biological target: NFR5-TurboID (Lotus japonicus) (UniProt Q70KR1); test: proximity labelling

Row | binding [1] | binding [2] | binding [3] | binding [4] | binding [5] | binding [6] | binding [7] | Substance
1 | binds | binds | binds | binds | binds | binds | – | AtEH1/Pan1 (from UniProt F4HUN9)
2 | – | – | – | – | – | – | no binding | EFR-GFP (from UniProt C0LGT6 25-1031) (receptor)
3 | binds | – | – | – | – | – | – | PICALM4B (CAP1) (from UniProt Q8S9J8)
4 | binds | binds | binds | binds | binds | binds | – | TML (from UniProt Q9FKM4)
5 | binds | – | binds | binds | binds | binds | – | TWD40-2 (from UniProt F4KIH8)
